B1: P04104 (protein, UniProt P04104 1-637, looked up)
chain: MSLQCSSRSLCRGGGGSRNFSSGSAGLVSFQRRSTSSSMRRSGGGGGGRFSGGGFCGSSGSGFGSKSLMNLGGGRSISKSVAGGGGSFCGGFGGGSYGGGGFGGGSYGGGGFGGGSFGGGGFGGSGFGGGLGGGGGFGSGGGFGGGRFGSMGPVCPPGGIQEVTINQSLLQPLNVEVDPQIQKVKSQEREQIKSLNDKFASFIDKVRFLEQQNQVLQTKWELLQQVDTTTRTQNLDPFFENYISILRRKVDSLKSDQSRMDSELKNMQDLVEEYRTKYEDEINKRTNAENEFVTIKKDVDSAYMTKVELQAKADALQQDIDFFSALYQMEMSQMQTQISETNVVLSMDNNRSLDLDGIISEVKAQYDSICQRSKAEAETFYQSKYEELQITAGKHGDSVRNTKMEISELNRMIQRLRSEIDGCKKQISQIQQNINDAEQRGEKALKDAQNKLNEIEDALSQCKEDLARLLRDFQELMNTKLALDMEIATYKKLLEGEEIRMSGECTPNVSVSVSTSHTSMSGSSSRGGGSGGGRYGGGGSYGGGSGGGSYGGSSGGGGSGGSYGGGSGGGSYGGGSGGGSSGSHRGGSGGGGGSSGGSYGGSSGGGRGGSSSGGGGVKSSGSSTVKFVSTSYSRGTK
modifications: full-length
B2: P01806 (protein, UniProt P01806 1-116, looked up)
chain: MDFGLIFFIVALLKGVQCEVKLLESGGGLVQPGGSLKLSCAASGFDFSRYWMSWVRQAPGKGLEWIGEINPDSSTINYTPSLKDKFIISRDNAKNTLYLQMSKVRSEDTALYYCAR
modifications: full-length
B3: P18524 (protein, UniProt P18524 1-117, looked up)
chain: MNFGLRLIFLVLVLKGVLCDVKLVESGGGLVKLGGSLKLSCAASGFTFSSYYMSWVRQTPEKRLELVAAINSNGGSTYYPDTVKGRFTISRDNAKNTLYLQMSSLKSEDTALYYCAR
modifications: full-length
B4: P11679 (protein, UniProt P11679 1-490, looked up)
chain: MSIRVTQKSYKMSTSGPRAFSSRSFTSGPGARISSSSFSRVGSSSSSFRGSMGTGVGLGGFGGAGVGGITAVTVNQSLLSPLKLEVDPNIQAVRTQEKEQIKSLNNKFASFIDKVRFLEQQNKMLETKWSLLQQQKTSRSNMDNMFESYINNLRRQLEALGQEKLKLEAELGNMQGLVEDFKNKYEDEINKRTEMENEFVLIKKDVDEAYMNKVELESRLEGLTDEINFLRQIHEEEIRELQSQISDTSVVLSMDNSRSLDMDGIIAEVRAQYEDIANRSRAEAETMYQIKYEELQTLAGKHGDDLRRTKTEISEMNRNINRLQAEIEALKGQRASLEAAIADAEQRGEMAIKDAQTKLAELEAALQRAKQDMARQLREYQELMNVKLALDIEITTYRKLLEGEESRLESGMQNMSIHTKTTSGYSGGLSSSYGGLTSPGFSYGMSSFQPGFGSAGGSNTFSRTTKAVVVKKIETRDGKLVSESSDVVSK
modifications: full-length
B5: Q91VC3 (protein, UniProt Q91VC3 1-411, looked up)
chain: MAANATMATSGSARKRLLKEEDMTKVEFETSEEVDVTPTFDTMGLREDLLRGIYAYGFEKPSAIQQRAIKQIIKGRDVIAQSQSGTGKTATFSVSVLQCLDIQVRETQALILAPTRELAVQIQKGLLALGDYMNVQCHACIGGTNVGEDIRKLDYGQHVVAGTPGRVFDMIRRRSLRTRAIKMLVLDEADEMLNKGFKEQIYDVYRYLPPATQVVLISATLPHEILEMTNKFMTDPIRILVKRDELTLEGIKQFFVAVEREEWKFDTLCDLYDTLTITQAVIFCNTKRKVDWLTEKMREANFTVSSMHGDMPQKERESIMKEFRSGASRVLISTDVWARGLDVPQVSLIINYDLPNNRELYIHRIGRSGRYGRKGVAINFVKNDDIRILRDIEQYYSTQIDEMPMNVADLI
modifications: full-length
B6: Q8BGQ7 (protein, UniProt Q8BGQ7 1-968, looked up)
chain: MDATLTAREIRERFINFFRRNEHTYVHSSATIPLDDPTLLFANAGMNQFKPIFLNTIDPSHPMAKLSRAANTQKCIRAGGKHNDLDDVGKDVYHHTFFEMLGSWSFGDYFKELACKMALELLTQEFGIPVERLYVTYFGGDEAAGLEPDLECRQIWQNLGLDEARILPGNMKDNFWEMGDTGPCGPCSEIHYDRIGGRDAAHLVNQDDPNVLEIWNLVFIQYNRESDGVLKPLPKKSIDTGMGLERLVSVLQNKMSNYDTDLFMPYFEAIQKGTGARPYTGKVGAEDADGIDMAYRVLADHARTITVALADGGRPDNTGRGYVLRRILRRAVRYSHEKLNASRGFFATLVDVVVQSLGDAFPELKKDPEMVKDIINEEEVQFLKTLSRGRRILDRKIQSLGDCKTIPGDTAWLLYDTYGFPVDLTGLIAEEKGLVVDMNGFEEERRLAQLKSQGKGAGDEDLIMLDIYAIEELRAKGLEATDDSPKYNYQSDSSGSYVFECTVATVLALRREKMFVDEVVTGQECGVVLDKTCFYAEQGGQIYDEGYLVKVDDSSEDKTEFTVKNAQVRGGYVLHIGTIYGNLKVGDQVRLFIDEPRRRPVMSNHTATHILNFALRSVLGEADQKGSLVAPDRLRFDFTAKGAMSTQQIKKAEEIVNGMIEAAKPVYTQDCPLAAAKAIQGLRAVFDETYPDPVRVVSIGVPVSELLDDPCGPAGSLTSVEFCGGTHLRNSSHAGAFVIVTEEAIAKGIRRIVAVTGAEAQKALRKSETLKKSLSAMEAKVKAQTAPNKDVQREIADLGEALATAVIPQWQKDEQRETLKSLKKVMDDLDRASKADVQKRVLEKTKQLIDSNPNQPLVILEMESGASAKALNEALKLFKTHSPQTSAMLFTVDNEAGKITCLCQVPQNAANRGLKASEWVQQVSGLMDGKGGGKDMSAQATGKNVGCLQEALQLATSFAQLRLGDVKN
modifications: full-length
B7: Q9CWJ9 (protein, UniProt Q9CWJ9 1-592, looked up)
chain: MAPSQLALFSVSDKTGLVEFARSLASLGLSLVASGGTAKAIRDAGLAVRDVSELTGFPEMLGGRVKTLHPAVHAGILARNIPEDAADMARLDFNLVRVVVCNLYPFVKTVASPDVTVEAAVEQIDIGGVTLLRAAAKNHARVTVVCEPEDYAGVAAEMHGSDSKDTSLETRRHLALKAFTHTAQYDEAISDYFRKQYSKGISQMPLRYGMNPHQTPAQLYTLKPKLPITVLNGAPGFINLCDALNAWQLVTELRGAVDIPAAASFKHVSPAGAAVGVPLSEDEARVCMVYDLYPTLTPLAVAYARARGADRMSSFGDFVALSDICDVPTAKIISREVSDGIVAPGYEEEALKILSKKKNGNYCVLQMDQSYKPDENEVRTLFGLRLSQKRNNGVVDKSLFSNIVTKNKDLPESALRDLIVATVAVKYTQSNSVCYAKDGQVIGIGAGQQSRIHCTRLAGDKANSWWLRHHPRVLSMKFKAGVKRAEISNAIDQYVTGTIGEGEDLVKWEALFEEVPELLTEAEKKEWVDKLSGVSVSSDAFFPFRDNVDRAKRSGVAYIVAPSGSTADKVVIEACDELGIVLAHTDLRLFHH
modifications: full-length
B8: Q8BWT1 (protein, UniProt Q8BWT1 1-397, looked up)
chain: MALLRGVFIVAAKRTPFGAYGGLLKDFSATDLTEFAARAALSAGKVPPETIDSVIVGNVMQSSSDAAYLARHVGLRVGVPTETGALTLNRLCGSGFQSIVSGCQEICSKDAEVVLCGGTESMSQSPYCVRNVRFGTKFGLDLKLEDTLWAGLTDQHVKLPMGMTAENLAAKYNISREDCDRYALQSQQRWKAANEAGYFNEEMAPIEVKTKKGKQTMQVDEHARPQTTLEQLQKLPSVFKKDGTVTAGNASGVSDGAGAVIIASEDAVKKHNFTPLARVVGYFVSGCDPTIMGIGPVPAINGALKKAGLSLKDMDLIDVNEAFAPQFLSVQKALDLDPSKTNVSGGAIALGHPLGGSGSRITAHLVHELRRRGGKYAVGSACIGGGQGIALIIQNTA
modifications: full-length
B9: Q8BH00 (protein, UniProt Q8BH00 1-487, looked up)
chain: MAGKRELLMLENFIGGKFLPCNSYIDSYDPSTGEVYCKVPNSGKEEIEAAVEAAREAFPAWSSRSPQERSLVLNRLADVLEQSLEELAQAESKDQGKTLTLARTMDIPRSVLNFRFFASSNLHHVSECTQMSHLGCMHYTVRTPVGIAGLISPWNLPLYLLTWKIAPAIAAGNTVIAKPSEMTSVTAWMFCKLLDKAGVPPGVINIVFGTGPRVGEALVSHPEVPLISFTGSQPTAERITQLSAPHCKKLSLELGGKNPAIIFEDANLEECIPATVRSSFANQGEICLCTSRIFVQRSIYSEFLKRFVEATRKWKVGVPSDPSANMGALISKAHLEKVRSYVLKAQTEGARILCGEGVDQLSLPLRNQAGYFMLPTVITDIKDESRCMTEEIFGPVTCVVPFDSEEEVITRANSVRYGLAATVWSKDVGRIHRVAKKLQSGLVWTNCWLIRELNLPFGGMKSSGIGREGAKDSYDFFTEIKTITIKY
modifications: full-length
B10: Q6IFZ6 (protein, UniProt Q6IFZ6 1-572, looked up)
chain: MSRQFSSQSAFSSRSRRAYSSRSSSGFGGGRQALVSVSQSRRYGGDYGGGFSSRSLYSLGGSKSIFGNLVGRSASGFCQSRGPGGGFGGGIGGGIGGGRGFGGGGFGGGYGGGGRFGGGFGGAGFGFGGFGPSYPPGGIHEVTINQSLLEPLHLEVDPEIQRVKTQEREQIKTLNNKFASFIDKVRFLEQQNQVLQTKWELLQQVNTSTRTSSLEPVFEEFISQLQRQVDVLTTEQLRQNTEIRNMQDVVEDYKNKYEDEINKRTNAENDFVVLKKDVDAAFMGKSDLQSKVDTLYGEINFLKYLFDTELSQIQTHVSDTNVILSMDNNRSLDLDSIIDAVRAQYEIIAQKSKDEAEALYQTKYQELQITAGKHGDDLKNSKMEISELNRNIQRLRAEIANIKKQVEGMHGLISDAEERGERALQNAKQKLQDMEEALQQAKEDLAKLLRDYQAMLGAKLSLDVEIATYRQLLEGEESRMSGALQSQVSISVQSSQVTIGGGGGGSGSYSGSSRGGGGGGGGTGSRGGGGGGGGSSYVSSSRSATKYGSGGGSSRTQILQTSTHSSRRHVVE
modifications: full-length

System: CA19-9 modified proteins
Test: CA19-9 IP/MS (iTRAQ) of organoid conditioned media after Dox treatment
Design: species or system mouse
[1] = CA19-9 IP/MS relative abundance, A217 (genetic negative) organoid conditioned media, 0H (before treatment), IP with NS19-9, reference channel = 1
[2] = CA19-9 IP/MS relative abundance, A217 (genetic negative) organoid conditioned media, after 8 hours, IP with 5B1
[3] = CA19-9 IP/MS relative abundance, A217 (genetic negative) organoid conditioned media, after 8 hours, IP with NS19-9
[4] = CA19-9 IP/MS relative abundance, A220 (C;R^LSL;F) organoid conditioned media, 0H (before treatment), IP with 5B1
[5] = A217 (genetic negative) organoids conditioned media, after 8 hours of treatment, CA19-9 IP with 5B1, relative to 17 0H NS19
[6] = A217 (genetic negative) organoids conditioned media, after 8 hours of treatment, CA19-9 IP with NS19-9, relative to 17 0H NS19
[7] = A217 (genetic negative) organoids conditioned media, before treatment (0H), CA19-9 IP with NS19-9, relative abundance, reference channel
[8] = A220 (C;R^LSL;F) organoids conditioned media, before treatment (0H), CA19-9 IP with 5B1, relative to 17 0H NS19

| Molecule | 17 0H NS19 [1] | 17 8H 5B1 [2] | 17 8H NS19 [3] | 20 0H 5B1 [4] | 17 8H 5B1 [5] | 17 8H NS19 [6] | 17 0H NS19 [7] | 20 0H 5B1 [8] |
| --- | --- | --- | --- | --- | --- | --- | --- | --- |
| B1 | 1 | 0.711 | 1.547 | 1.083 | – | – | – | – |
| B2 | – | – | – | – | 0.663 | 0.897 | 1 | 0.639 |
| B3 | – | – | – | – | 1.188 | 1.131 | 1 | 1.014 |
| B4 | 1 | 3.472 | 1.075 | 2.793 | – | – | – | – |
| B5 | – | – | – | – | 1.984 | 0.595 | 1 | 2.076 |
| B6 | – | – | – | – | 2.891 | 0.555 | – | 2.559 |
| B7 | – | – | – | – | 1.223 | 0.716 | 1 | 1.099 |
| B8 | – | – | – | – | 2.21 | 0.344 | 1 | 1.806 |
| B9 | – | – | – | – | 2.803 | 0.558 | 1 | 2.783 |
| B10 | 1 | 0.85 | 2.003 | 1.282 | – | – | – | – |
